Data as given in article doi:10.1101/2024.01.04.574163.

Sequences of proteins named here, by UniProt entry; tags and fusion partners are left off.
UniProt P40958: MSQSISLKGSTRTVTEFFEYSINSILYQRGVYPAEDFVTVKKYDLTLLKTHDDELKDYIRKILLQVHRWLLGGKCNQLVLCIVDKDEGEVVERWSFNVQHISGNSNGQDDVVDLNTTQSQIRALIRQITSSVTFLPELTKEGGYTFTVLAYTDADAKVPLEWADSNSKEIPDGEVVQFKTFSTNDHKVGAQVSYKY
UniProt P40460: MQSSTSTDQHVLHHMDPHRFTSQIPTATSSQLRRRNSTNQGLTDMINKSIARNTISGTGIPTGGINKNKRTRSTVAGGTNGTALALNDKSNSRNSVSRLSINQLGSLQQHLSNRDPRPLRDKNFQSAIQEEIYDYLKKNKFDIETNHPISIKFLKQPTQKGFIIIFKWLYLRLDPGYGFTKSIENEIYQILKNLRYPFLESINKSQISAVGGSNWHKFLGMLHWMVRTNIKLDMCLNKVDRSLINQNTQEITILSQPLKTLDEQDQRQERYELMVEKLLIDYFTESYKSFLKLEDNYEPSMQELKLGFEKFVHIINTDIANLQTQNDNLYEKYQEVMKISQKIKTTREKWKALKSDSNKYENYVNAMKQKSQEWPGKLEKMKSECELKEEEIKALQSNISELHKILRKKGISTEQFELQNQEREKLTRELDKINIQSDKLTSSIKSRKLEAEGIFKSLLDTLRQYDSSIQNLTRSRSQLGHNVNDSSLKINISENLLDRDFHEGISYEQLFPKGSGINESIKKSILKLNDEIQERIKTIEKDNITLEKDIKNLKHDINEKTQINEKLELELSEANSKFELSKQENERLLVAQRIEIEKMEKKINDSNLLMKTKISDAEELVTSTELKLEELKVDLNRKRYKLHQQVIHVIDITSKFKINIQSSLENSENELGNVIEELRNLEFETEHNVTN
UniProt P38903: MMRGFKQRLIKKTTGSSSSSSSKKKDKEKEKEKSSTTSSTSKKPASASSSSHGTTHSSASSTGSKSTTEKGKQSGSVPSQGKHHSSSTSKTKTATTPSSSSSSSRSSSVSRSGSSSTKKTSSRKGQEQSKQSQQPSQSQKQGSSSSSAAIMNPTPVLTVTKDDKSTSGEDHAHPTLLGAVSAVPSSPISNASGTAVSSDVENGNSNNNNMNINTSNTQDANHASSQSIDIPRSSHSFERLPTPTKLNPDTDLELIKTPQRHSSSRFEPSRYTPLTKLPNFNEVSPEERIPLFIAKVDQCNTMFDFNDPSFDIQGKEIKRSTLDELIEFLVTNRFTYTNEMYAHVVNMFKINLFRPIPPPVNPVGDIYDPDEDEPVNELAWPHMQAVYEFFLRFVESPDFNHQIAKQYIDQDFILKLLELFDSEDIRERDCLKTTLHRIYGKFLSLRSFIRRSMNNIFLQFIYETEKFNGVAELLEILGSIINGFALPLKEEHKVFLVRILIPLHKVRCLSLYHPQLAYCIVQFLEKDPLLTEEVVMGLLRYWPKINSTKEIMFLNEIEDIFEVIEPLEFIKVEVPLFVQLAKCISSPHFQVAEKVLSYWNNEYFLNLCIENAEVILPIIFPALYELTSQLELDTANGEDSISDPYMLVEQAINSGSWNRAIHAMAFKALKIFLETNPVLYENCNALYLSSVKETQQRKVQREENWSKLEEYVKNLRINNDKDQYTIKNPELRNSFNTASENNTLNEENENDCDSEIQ
UniProt P09733: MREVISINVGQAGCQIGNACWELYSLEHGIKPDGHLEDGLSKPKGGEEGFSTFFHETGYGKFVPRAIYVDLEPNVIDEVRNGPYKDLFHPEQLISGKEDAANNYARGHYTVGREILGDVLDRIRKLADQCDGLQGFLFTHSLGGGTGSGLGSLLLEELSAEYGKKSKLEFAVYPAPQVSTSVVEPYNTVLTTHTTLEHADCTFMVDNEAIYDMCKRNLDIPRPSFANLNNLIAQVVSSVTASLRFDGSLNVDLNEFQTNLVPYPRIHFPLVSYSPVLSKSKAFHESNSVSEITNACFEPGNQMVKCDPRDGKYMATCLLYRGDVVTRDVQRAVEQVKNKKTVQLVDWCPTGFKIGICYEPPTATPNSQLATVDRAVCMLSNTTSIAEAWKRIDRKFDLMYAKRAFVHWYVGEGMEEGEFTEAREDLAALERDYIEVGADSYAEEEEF
UniProt P02557: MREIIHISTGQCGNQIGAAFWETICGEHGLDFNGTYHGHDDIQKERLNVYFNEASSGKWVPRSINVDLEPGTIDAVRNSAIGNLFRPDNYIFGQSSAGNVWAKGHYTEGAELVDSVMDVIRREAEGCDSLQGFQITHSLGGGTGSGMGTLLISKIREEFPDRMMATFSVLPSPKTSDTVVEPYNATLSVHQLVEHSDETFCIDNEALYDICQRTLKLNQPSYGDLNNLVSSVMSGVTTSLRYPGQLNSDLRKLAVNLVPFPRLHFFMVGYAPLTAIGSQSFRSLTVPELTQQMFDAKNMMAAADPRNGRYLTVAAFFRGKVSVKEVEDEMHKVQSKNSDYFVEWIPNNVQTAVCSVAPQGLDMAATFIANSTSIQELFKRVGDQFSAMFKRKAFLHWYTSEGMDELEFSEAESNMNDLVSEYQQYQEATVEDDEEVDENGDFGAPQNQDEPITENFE
UniProt P09734: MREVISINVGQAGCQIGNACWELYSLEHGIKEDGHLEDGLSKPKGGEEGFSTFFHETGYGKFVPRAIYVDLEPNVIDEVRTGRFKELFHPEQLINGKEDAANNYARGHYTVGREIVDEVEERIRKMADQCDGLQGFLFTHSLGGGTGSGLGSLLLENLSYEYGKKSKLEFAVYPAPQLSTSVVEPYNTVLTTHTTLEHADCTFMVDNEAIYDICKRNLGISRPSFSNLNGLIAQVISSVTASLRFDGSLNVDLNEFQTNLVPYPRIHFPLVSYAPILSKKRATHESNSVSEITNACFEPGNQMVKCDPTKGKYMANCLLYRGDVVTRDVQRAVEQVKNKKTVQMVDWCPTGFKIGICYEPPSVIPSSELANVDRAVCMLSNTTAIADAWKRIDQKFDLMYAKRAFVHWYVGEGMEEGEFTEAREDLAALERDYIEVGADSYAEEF

T1: Mad3-FLAG (S. cerevisiae (endogenous in SK1 strains)) (UniProt P47074)
T1 sequence: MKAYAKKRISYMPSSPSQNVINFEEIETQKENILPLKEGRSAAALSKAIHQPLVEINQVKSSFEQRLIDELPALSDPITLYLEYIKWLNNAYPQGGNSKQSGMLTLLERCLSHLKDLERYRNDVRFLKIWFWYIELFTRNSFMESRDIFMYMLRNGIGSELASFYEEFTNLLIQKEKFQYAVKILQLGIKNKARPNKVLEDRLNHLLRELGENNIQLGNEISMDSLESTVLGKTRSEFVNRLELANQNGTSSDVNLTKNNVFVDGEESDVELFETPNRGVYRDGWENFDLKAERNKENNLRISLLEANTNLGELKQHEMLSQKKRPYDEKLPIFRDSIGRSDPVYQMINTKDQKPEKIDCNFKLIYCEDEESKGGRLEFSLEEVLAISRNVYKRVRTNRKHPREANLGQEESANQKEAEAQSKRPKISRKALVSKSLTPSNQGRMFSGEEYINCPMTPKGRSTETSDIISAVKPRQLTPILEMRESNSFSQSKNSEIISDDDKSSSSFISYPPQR

B1: Bub3 (protein, UniProt P26449 1-341)
chain: MQIVQIEQAPKDYISDIKIIPSKSLLLITSWDGSLTVYKFDIQAKNVDLLQSLRYKHPLLCCNFIDNTDLQIYVGTVQGEILKVDLIGSPSFQALTNNEANLGICRICKYGDDKLIAASWDGLIEVIDPRNYGDGVIAVKNLNSNNTKVKNKIFTMDTNSSRLIVGMNNSQVQWFRLPLCEDDNGTIEESGLKYQIRDVALLPKEQEGYACSSIDGRVAVEFFDDQGDDYNSSKRFAFRCHRLNLKDTNLAYPVNSIEFSPRHKFLYTAGSDGIISCWNLQTRKKIKNFAKFNEDSVVKIACSDNILCLATSDDTFKTNAAIDQTIELNASSIYIIFDYEN
B2: Ptc7 (enzyme, UniProt P38797 40-343)
chain: YQSNNSHGDAYSSGSQSGPFTYKTAVAFQPKDRDDLIYQKLKDSIRSPTGEDNYFVTSNNVHDIFAGVADGVGGWAEHGYDSSAISRELCKKMDEISTALAENSSKETLLTPKKIIGAAYAKIRDEKVVKVGGTTAIVAHFPSNGKLEVANLGDSWCGVFRDSKLVFQTKFQTVGFNAPYQLSIIPEEMLKEAERRGSKYILNTPRDADEYSFQLKKKDIIILATDGVTDNIATDDIELFLKDNAARTNDELQLLSQKFVDNVVSLSKDPNYPSVFAQEISKLTGKNYSGGKEDDITVVVVRVD
B3: Ptc3 (enzyme, UniProt P34221 1-468)
chain: MGQILSNPIIDKEHHSGTDCLTAFGLCAMQGWRMSMEDAHIVEPNLLAESDEEHLAFYGIFDGHGGSSVAEFCGSKMISILKKQESFKSGMLEQCLIDTFLATDVELLKDEKLKDDHSGCTATVILVSQLKKLLICANSGDSRTVLSTGGNSKAMSFDHKPTLLSEKSRIVAADGFVEMDRVNGNLALSRAIGDFEFKSNTKLGPHEQVVTCVPDIICHNLNYDEDEFVILACDGIWDCLTSQECVDLVHYGISQGNMTLSDISSRIVDVCCSPTTEGSGIGCDNMSISIVALLKENESESQWFERMRSKNYNIQTSFVQRRKSIFDFHDFSDDDNEVFAITTKKLQDRLNRSKDNDDMEIDDLDTELGSSATPSKLSGEDRTGPIDLFSLEALLEAGIQIRQRPSSDSDGNTSYFHGASLSDMLASLSNAAAGETEPNDADDNDDNDGEENGKNENAKKGSKIEEIE

Experiments:
Test in all cases: affinity purification with mass spectrometry
[1] = biological target: Mad2-FLAG (S. cerevisiae (endogenous in SK1 strains)) (UniProt P40958)
[2] = biological target: T1, Mad3-FLAG (S. cerevisiae (endogenous in SK1 strains))
[3] = biological target: T1, Mad3-FLAG (S. cerevisiae (endogenous in SK1 strains)); remark: listed apart in the source

Row | Molecule | binding [1] | binding [2] | binding [3]
1 | Ndc80 (from UniProt P40460 1-691) | binds | no binding | 
2 | Rts1, a subunit of PP2A-B56 (from UniProt P38903 1-757) |  | binds | 
3 | Tub1 (from UniProt P09733 1-447) |  | binds | 
4 | Tub2 (from UniProt P02557 1-457) |  | binds | 
5 | Tub3 (from UniProt P09734 1-445) |  | binds | 
6 | B1 |  | binds | 
7 | B2 |  | binds | binds
8 | B3 |  | binds | 

Like-named read-outs stand apart in the source and are kept apart here. No constants are given. Whether binding was seen depends on the method and setting. In cells and extracts the contact can be indirect. Here binding means that the protein was enriched with, or labelled near, the bait; the list need not be complete. For some of these results: A no says only that the protein was not detected with the bait. For some of these results: Tags and fused reporters may be left off the sequences shown.
